From PubChem BioAssay AID2685 (National Center for Advancing Translational Sciences (NCATS), 2010) come the findings set out here.

The AC50 is the midpoint of the concentration-response curve, whichever way the signal moves. A high value points to weaker potency.

The list shows a part of the results. Shown are side measurements of this screen, not its main read-out; they come without a call. Compounds called inactive in the main read-out are mostly missing here. Potencies come from curve fits of mixed quality, noted in brackets.

The nature of the test: qHTS Assay for Lipid Storage Modulators in Drosophila S3 Cells.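 On cell number change: cells counted by Cell Tracker Red CMTPX staining in the red channel.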 As to conditions: BODIPY lipid droplet fluorescence, 18-24 h; for cell number change: measured here: cell count max response, cells fed with added oleic acid. In short, it runs like this: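 Laser-scanning cytometry quantifies lipid droplet accumulation (500–530 nm total intensity; droplet/cell object ratio) in oleic acid-fed (400 uM added) Drosophila S3 cells treated with a concentration series. 20 uM Triacsin C defined 100% inhibition.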
A general note: qHTS replaces the single test concentration by a dilution series.

Setting [1] is: measured here: lipid fluorescence (Fed channel) AC50, cells fed with added oleic acid.
Setting [2] is: measured here: cell number channel AC50, cells fed with added oleic acid.

Consider `COc1cc(/C=C/C(=O)O)ccc1OS(=O)(=O)c1cc(Br)ccc1C`, for which the cell number change is -12.8%. The AC50 under setting [1] was 13 µM [rising, partial curve, poor fit].

Turning to `Oc1ccc(Nc2nnc(-c3ccc(O)cc3)c3ccccc23)cc1`, the cell number change is 6.85%.

For the compound `CCOC(=O)c1c(C)[nH]c(C(=O)C(C)Sc2ccc(Cl)cc2)c1C` (stereo not given), the cell number change was -19.2%. The half-maximal activity concentration (AC50) under setting [1] was 0.146 µM [falling, full curve].

`Cc1ccccc1NC(=S)N=Nc1c(O)n(C)c2ccc(S(=O)(=O)N3CCOCC3)cc12`: the cell number change is -22%. For the same compound, under setting [1], the AC50 was 2.06 µM [falling, partial curve, poor fit].

As for `CCOC(=O)COc1cc(OCC(=O)OCC)c2c3c(c(=O)oc2c1)CCCC3`, the cell number change was 12.6%.

With `N#C/C(=C\C1CC2C=CC1C2)c1nc2ccccc2[nH]1` (stereo not given), the cell number change worked out at 32.2%. Besides, the AC50 under setting [2] was 0.184 µM [rising, full curve, poor fit].

For `COc1ccc(CN2CCN(C(=O)c3ccc(-c4ccccc4)cc3)CC2)c(OC)c1OC`, the cell number change was -11.7%. Further, under setting [1], the AC50 is 6.51 µM [falling, single point].

As for `CC1CCC(=C(C#N)c2nc(-c3cc4ccccc4oc3=O)cs2)CC1` (stereo not given), the AC50 under setting [1] is 0.461 µM [rising, single point].

For the compound `COc1ccc(OCC(=O)O/N=C(\N)Cc2ccc(Cl)cc2Cl)cc1`, the AC50 under setting [1] was 29.1 µM [rising, single point].

In the case of `OC(CC1CC12c1ccccc1-c1ncccc12)(c1ccccc1)c1ccccc1` (stereo not given), the cell number change is -36.4%. In addition, the AC50 under setting [2] was 1.84 µM [rising, partial curve]. Also, the AC50 under setting [1] was 1.84 µM [rising, full curve].

As for `CC(=O)c1c(C)[nH]c(C(=O)COc2ccc3ccc(=O)oc3c2)c1C`, the cell number change is -11.8%. The AC50 under setting [1] is 29.1 µM [falling, single point].

Consider `COc1ccc(CCN(C)C(=O)CSc2ncnc3sccc23)cc1OC`, for which the cell number change stood at 55.3%. In addition, the AC50 under setting [2] is 7.31 µM [rising, partial curve].

Take `O=C(NC(=O)c1c(F)cccc1F)Nc1ccccc1SC(F)F`: the cell number change came out at 31.5%. The AC50 under setting [2] was 0.116 µM [rising, full curve, poor fit]. In addition, under setting [1], the AC50 was 4.11 µM [rising, single point].

With `CCCc1c(C(=O)Nc2cc(C(C)(C)C)on2)cnn1-c1ccccc1`, the cell number change is -1.98%. The AC50 under setting [1] was 0.092 µM [rising, full curve, poor fit].

For `O=C(O)c1ccccc1Nc1cc(Cl)c2nonc2c1[N+](=O)[O-]`, the cell number change was -8.01%.

As for `CC(NC(=O)c1ccc(F)cc1Cl)C1CC2CCC1C2` (stereo not given), the cell number change was found to be 12.2%.

As to `Cc1ccc(NC(=O)C(C)[n+]2ccccc2)cc1[N+](=O)[O-]` (stereo not given), the cell number change is -11.2%. The half-maximal activity concentration (AC50) under setting [1] was 18.4 µM [rising, single point].

As to `Cc1cccc(-c2noc(CN(C)C(=O)COc3ccccc3)n2)c1`, the cell number change is -3.59%. Moreover, under setting [1], the AC50 was 29.1 µM [rising, partial curve, poor fit].

As for `CS(=O)(=O)c1nc(-c2ccccc2)cc(C(F)(F)F)n1`, the cell number change was -75.2%. The concentration at half-maximal activity (AC50) under setting [2] is 3.26 µM [falling, full curve]. Further, the AC50 under setting [1] was 3.26 µM [falling, full curve].

On to `Cc1ccc(C(=O)NCc2ccco2)cc1S(=O)(=O)Nc1cccc(Cl)c1`, for which the cell number change turned out to be 13.2%. The AC50 under setting [1] is 6.51 µM [falling, single point].

Take `Oc1ccccc1-c1nnc(-c2ccc(C(F)(F)F)cc2)o1`: the cell number change is 83.8%. For the same compound, the AC50 under setting [2] was 18.4 µM [rising, single point].

On to `NNC(=O)c1sccc1OCc1cccc(C(F)(F)F)c1`, for which, under setting [1], the AC50 was 6.51 µM [rising, single point].

On to `CCN(CC)c1ccc(/C=N/NC(=O)Nc2nonc2N)cc1`, for which the cell number change is -77.8%. Besides, the AC50 under setting [2] was 16.4 µM [falling, single point]. The AC50 under setting [1] is 23.1 µM [falling, partial curve].

For the compound `COC(=O)Cn1c(CN2CCc3ccccc3C2)nc2c1c(=O)n(C)c(=O)n2C`, the cell number change was -118%. For the same compound, under setting [2], the AC50 was 29.1 µM [falling, single point]. Further, the AC50 under setting [1] was 23.1 µM [falling, single point].

On to `CC(C)(C)NCc1cc(Cl)ccc1OCc1ccccc1F`, for which the cell number change was -23.3%. For the same compound, the AC50 under setting [1] is 29.1 µM [rising, single point].

On to `O=C(N/N=C/C=C\c1cccc([N+](=O)[O-])c1)c1cccnc1`, for which the cell number change is 2.56%.

Take `Cc1nc(-c2cn[nH]c2-c2ccc(O)cc2O)cs1`: the cell number change is 8.71%.

On to `Cc1nn(CC(=O)N2CCOCC2)c(=O)c2c1sc1ccccc12`, for which the cell number change amounted to 6.6%. Also, the AC50 under setting [2] was 6.51 µM [rising, single point]. The AC50 under setting [1] is 6.51 µM [rising, partial curve].

Turning to `O=C(c1ccccc1)c1ccc(OCC(O)CNCc2cccc(Cl)c2)cc1` (stereo not given), the cell number change was -62.9%. Also, the AC50 under setting [2] was 23.1 µM [falling, single point].

Turning to `Cc1ccc(-c2cc(C(F)F)n3ncc(C(=O)N4CCN(c5ccccn5)CC4)c3n2)cc1`, the cell number change is -32.2%. Further, the AC50 under setting [2] is 16.4 µM [falling, single point].

With `COc1ccc(/C=N/NC(=O)c2cc3c(ccc4ccccc43)o2)cc1OC`, the cell number change was -27.2%. Moreover, the concentration at half-maximal activity (AC50) under setting [2] is 3.66 µM [falling, partial curve, poor fit]. Also, the AC50 under setting [1] is 6.51 µM [falling, single point].

`CC(=O)c1cccc(N2C(=O)CC(N3CCN(S(=O)(=O)c4ccc(Cl)cc4)CC3)C2=O)c1` (stereo not given): the cell number change came to 6.27%. For the same compound, under setting [1], the AC50 is 29.1 µM [rising, single point].

As to `Cc1nn(C)cc1C(=O)NNC(=S)Nc1ccc(Cl)cc1`, the cell number change worked out at 41.8%. Moreover, the AC50 under setting [2] is 23.1 µM [rising, single point]. The AC50 under setting [1] was 0.58 µM [rising, single point].

Consider `O=C(NCCc1ccccc1)c1ncn[nH]1`, for which the cell number change came to 84%. Under setting [2], the AC50 was 20.6 µM [rising, single point].

Take `COCCn1c(=O)[nH]c2cc(C(=O)N3CCN(c4ccc(OC)cc4)CC3)ccc2c1=O`: the cell number change was 0.952%. In addition, the AC50 under setting [1] is 6.51 µM [rising, single point].

For the compound `CC(Oc1ccc(Br)cc1)C(=O)Nc1cc(Cl)ccc1N1CCN(C)CC1` (stereo not given), the cell number change is -45.3%. Moreover, the AC50 under setting [2] was 5.17 µM [falling, partial curve]. Also, under setting [1], the AC50 was 6.51 µM [falling, partial curve].

As to `O=C(COc1ccc(S(=O)(=O)N2CCCCC2)cc1)NC1CCCCC1`, the half-maximal activity concentration (AC50) under setting [1] is 2.31 µM [falling, partial curve].

As for `COC(=O)COc1cc(=O)oc2ccc(NS(=O)(=O)c3ccccc3)cc12`, the cell number change was -12.5%. Also, under setting [1], the AC50 was 6.51 µM [rising, partial curve].
